Reference: paper PMC7851395 (British Journal of Cancer, 2020)
No constants are given. Whether binding was seen depends on the method and setting. Binding seen in cells or lysates may run through a third protein. Some results given as binding are weak or reduced against the parent protein; the word gives no strength.

The chains behind the UniProt entries cited, without tags or fusion partners.
UniProt P40763: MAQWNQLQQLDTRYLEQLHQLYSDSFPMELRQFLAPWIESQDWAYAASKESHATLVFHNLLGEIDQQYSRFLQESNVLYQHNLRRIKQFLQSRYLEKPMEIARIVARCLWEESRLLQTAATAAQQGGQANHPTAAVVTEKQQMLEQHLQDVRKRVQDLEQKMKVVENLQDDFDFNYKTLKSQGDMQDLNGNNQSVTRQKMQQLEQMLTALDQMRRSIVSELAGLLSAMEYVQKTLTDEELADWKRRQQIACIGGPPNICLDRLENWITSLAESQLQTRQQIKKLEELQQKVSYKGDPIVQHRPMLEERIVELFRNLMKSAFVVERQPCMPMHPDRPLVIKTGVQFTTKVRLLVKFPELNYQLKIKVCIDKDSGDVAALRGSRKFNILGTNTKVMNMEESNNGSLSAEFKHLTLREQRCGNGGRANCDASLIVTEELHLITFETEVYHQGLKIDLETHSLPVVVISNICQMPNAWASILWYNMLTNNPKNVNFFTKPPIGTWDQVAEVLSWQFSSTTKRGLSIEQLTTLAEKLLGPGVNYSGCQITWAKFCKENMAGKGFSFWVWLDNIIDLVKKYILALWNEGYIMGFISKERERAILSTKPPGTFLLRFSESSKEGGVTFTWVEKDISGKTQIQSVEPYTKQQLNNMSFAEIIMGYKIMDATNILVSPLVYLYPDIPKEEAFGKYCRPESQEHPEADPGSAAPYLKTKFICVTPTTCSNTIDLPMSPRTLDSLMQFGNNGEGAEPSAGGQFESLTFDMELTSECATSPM
UniProt P50750: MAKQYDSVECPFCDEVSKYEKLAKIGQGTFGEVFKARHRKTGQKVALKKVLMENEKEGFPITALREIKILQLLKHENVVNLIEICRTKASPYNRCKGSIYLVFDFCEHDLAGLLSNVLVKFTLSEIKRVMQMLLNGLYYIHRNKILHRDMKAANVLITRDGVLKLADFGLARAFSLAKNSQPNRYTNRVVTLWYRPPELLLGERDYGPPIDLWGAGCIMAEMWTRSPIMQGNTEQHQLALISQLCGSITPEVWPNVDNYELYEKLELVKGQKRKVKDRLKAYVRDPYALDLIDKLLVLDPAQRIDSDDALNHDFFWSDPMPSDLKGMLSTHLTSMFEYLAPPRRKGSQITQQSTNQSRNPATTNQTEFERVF

Molecular target: STAT3 (human (endogenous in H460)) (UniProt P40763)
Assay: co-IP; 1 mg whole-cell extracts of H460 cells stimulated with IL6 (25 ng/ml) for 30 min or left untreated; polyclonal antibodies against CDK9, STAT3 or nonspecific antibodies, 4 °C overnight; protein A/G agarose beads; washed with cold PBS; endogenous proteins, no transfection

Substance: Cyclin-dependent kinase 9 (from UniProt P50750 1-372)
- binding: binds
